# According to PubChem BioAssay AID504467 (National Center for Advancing Translational Sciences (NCATS), 2011):
# The whole screen tested about 330,000 compounds, of which about 7,700 (2.3%) were called active. This list was built around the results that the source calls inconclusive (neither active nor inactive); the mix of calls is not that of the screen. The call rests on the fitted dose curve; in most records, active means well fitted inhibition curve with a large enough effect; inconclusive means small, poorly fitted or top-dose-only effect, or effect the other way; inactive means flat fitted curve, though single readings scatter. Potencies beside an inconclusive call are fits to weak or partial responses and may not hold up.
# Test: qHTS screen for small molecules that inhibit ELG1-dependent DNA repair in human embryonic kidney (HEK293T) cells expressing luciferase-tagged ELG1; further: nearly all actives have a fitted effect of over 55% in size
# Conditions: HEK293T ELG1-luciferase reporter, luminescence, 16 h, DNA damage induced by 5-fluorouridine; series mostly up to 46.1 µM
# Outline: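 Quantitative HTS, concentration-response format. 2,000 cells/well co-treated with 5-fluorouridine and compound, 16 hr in 5% CO2 at 37 °C; ONE-Glo luminescence read after 30 min.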
# Potency means the concentration at half of the fitted maximal effect.
row,Structure (SMILES),Potency
1,COC(=O)c1ccc(COc2ccc(/C=C(\C#N)c3nc4ccccc4[nH]3)cc2OC)o1,inactive
2,C/C(=N\NC(=O)CSc1nc(C)cc(C)n1)c1cccs1,"inconclusive: 16.4 µM [activator, partial curve, poor fit]"
3,O=C(NCc1ccco1)c1ccc2c(c1)N(Cc1ccccc1)CCS2,"inconclusive: 16.4 µM [inhibitor, single point]"
4,O=C(Nc1nccs1)c1cn2ccccc2n1,"inconclusive: 1.46 µM [activator, partial curve]"
5,CN=C1C=C/C(=N/N=c2\ccn(O)cc2C)C=C1C,"inconclusive: 18.3 µM [activator, partial curve]"
6,Cc1ccc(N=C2NC(=O)/C(=C\c3ccc(C)s3)S2)cc1,inactive
7,COc1cccc2sc(Nc3nc(-c4ccccn4)cs3)nc12,"inconclusive: 4.11 µM [activator, single point]"
8,Cc1nc(N)sc1-c1csc(Nc2ncccn2)n1,"inconclusive: 16.4 µM [activator, partial curve]"
9,CC(=O)N1CCN(c2ccc(NC(=O)c3ccccc3Br)cc2Cl)CC1,"inconclusive: 29.1 µM [inhibitor, single point]"
10,CN(C)/C=N/c1ncc(C(=O)c2ccc(Cl)cc2Cl)s1,inactive
11,CC1(c2ccccc2)NC(=O)N(CC(=O)Nc2nnc(C3CC3)s2)C1=O (centres undefined),"inconclusive: 20.6 µM [activator, partial curve, poor fit]"
12,COc1cc2[nH]c(=O)n(CCC(=O)N3CCN(c4cc(Cl)ccc4C)CC3)c(=O)c2cc1OC,active: 8.2 µM
13,O=C(c1nc2nc(-c3ccccc3)cc(C(F)(F)F)n2n1)N1CCCCC1,active: 3.26 µM
14,N#Cc1c(-c2cccc(Br)c2)cc(-c2cccnc2)nc1N,"inconclusive: 23.1 µM [inhibitor, partial curve]"
15,CC(C)=CCCC(C)NC(=O)NC1CCCCC1 (centres undefined),"inconclusive: 25.9 µM [activator, single point]"
16,COc1ccc(NC(=O)N2CCCC2C(=O)NCc2ccc(C)cc2)cc1 (centres undefined),inactive
17,Cc1cc(Cl)ccc1NC(=O)COC(=O)c1cc([N+](=O)[O-])ccc1N1CCOCC1,"inconclusive: 13 µM [inhibitor, partial curve]"
18,COc1cc(Cl)ccc1OCc1cc(C(=O)N2CC[C@@H]3CCCC[C@H]3C2)no1,"inconclusive: 14.6 µM [activator, partial curve]"
19,COc1ccc(/C=C/C(=O)c2cc(Br)ccc2O)cc1OC,"inconclusive: 18.3 µM [inhibitor, single point]"
20,COCCNC(=O)CCC1CCN(Cc2cccc(Oc3ccccc3)c2)CC1,inactive
21,Cc1ccc(Cc2nnc3n(-c4ccccc4)nc(C(=O)c4ccccc4)n3c2=O)cc1,active: 20.6 µM
22,Cc1sc(N)nc1-c1ccc(Oc2ccccc2)cc1,"inconclusive: 23.1 µM [activator, single point]"

row,Structure (SMILES),Potency
1,CN(C)S(=O)(=O)c1ccc2c(c1)C(=O)c1cc(S(=O)(=O)N(C)C)ccc1CC2,"inconclusive: 29.1 µM [inhibitor, single point]"
2,CCC(C)NCCOCCOc1ccc(Cl)c2ccccc12 (centres undefined),"inconclusive: 29.1 µM [inhibitor, single point]"
3,O=[N+]([O-])c1ccc(N/N=C/c2sc(N3CCOCC3)nc2-c2ccccc2)c(S(=O)(=O)Nc2ccccc2Cl)c1,"inconclusive: 0.73 µM [inhibitor, full curve]"
4,Cn1cccc1C(=O)OCC(=O)Nc1sccc1C#N,"inconclusive: 16.4 µM [activator, partial curve]"
5,O=C(CCn1nc(-c2ccc(Cl)cc2)ccc1=O)N1CCN(c2ccccn2)CC1,"inconclusive: 14.6 µM [inhibitor, single point]"
6,O=C1c2ccccc2C(Nc2ccccc2)N1Cc1ccc2c(c1)OCO2 (centres undefined),"inconclusive: 32.6 µM [inhibitor, single point]"
7,CCc1ccc2oc(C(=O)N3CCN(c4ccc(OC)cc4)CC3)cc(=O)c2c1,inactive
8,O=C1C=CC(=C(c2ccc(O)cc2)c2ccc(O)cc2)C=C1,active: 13 µM
9,CC(C)CCn1c(=O)c2ccccc2n2c(CN(C)Cc3ccccc3)nnc12,"inconclusive: 18.4 µM [inhibitor, single point]"
10,CC(C)C[C@@H](CN1C(N)=NC[C@@H]1C)NC(=O)CC12CC3CC(CC(C3)C1)C2,"inconclusive: 18.3 µM [activator, partial curve, poor fit]"
11,CN(C)/C=C/C(=O)c1ccc2noc(-c3cccc(F)c3)c2c1,"inconclusive: 13 µM [inhibitor, partial curve]"
12,O=C(c1ccc2ccccc2c1)C1CCCN(C(=O)c2noc3c2CCCC3)C1 (centres undefined),"inconclusive: 18.3 µM [inhibitor, single point]"
13,CC(Oc1cccc(Cl)c1)C(=O)Nc1cc(S(=O)(=O)N2CCOCC2)ccc1N1CCCCC1 (centres undefined),inactive
14,CC(C)CCNC(=O)CCCOc1cc(=O)n(C)c2ccccc12,"inconclusive: 9.2 µM [activator, partial curve]"
15,Cn1cnnc1SCC(=O)Nc1cc(S(=O)(=O)N2CCCCCC2)ccc1Cl,inactive
16,Cc1ccccc1-c1nnn(Cc2ccc(F)cc2Cl)n1,"inconclusive: 18.3 µM [activator, single point]"
17,COc1ccccc1NS(=O)(=O)c1cccc(C(=O)NNC(=O)c2ccc(NC(C)=O)cc2)c1,inactive
18,Cn1c(N2CCOCC2)c(/C=N/OC(=O)c2ccc(F)cc2)c2ccccc21,"inconclusive: 1.84 µM [inhibitor, partial curve]"
19,CCn1c(=O)cc(SCC(=O)N2CCN(C3CCCCC3)CC2)c2ccccc21,"inconclusive: 2.59 µM [activator, full curve]"
20,Cc1nc(C)c(-c2csc(NCc3ccccc3)n2)s1,inactive
21,CN1CCN(S(=O)(=O)c2ccc3[nH]cc(C(=O)O)c(=O)c3c2)CC1,"inconclusive: 1.16 µM [inhibitor, single point]"
22,Cc1ccc(Cl)cc1N1CCN(S(=O)(=O)c2c(C)[nH]c(C)c2C(=O)N2CCCCC2)CC1,"inconclusive: 29.1 µM [inhibitor, single point]"

# In a second layout: two of the compounds above
row | Structure (SMILES) | Potency
13 | CC(Oc1cccc(Cl)c1)C(=O)Nc1cc(S(=O)(=O)N2CCOCC2)ccc1N1CCCCC1 (centres undefined) | inactive
20 | Cc1nc(C)c(-c2csc(NCc3ccccc3)n2)s1 | inactive
